Assay results as given in patent publication US8202910B2 (Sequella, Inc., priority 2006, dated 2012).
At least one structure is not confirmed: it was looked up by name or label, or the drawing left a doubt.

Tested on: M. tuberculosis H37Rv (Pasteur)
Assay: Rapid in vivo model of TB, body weight of infected mice
Parameters: species or system C3H female mice
Settings: single drug alone (SQ109 10 mg/kg; Rifampin 2 mg/kg)

For CO[C@H]1/C=C/O[C@@]2(C)Oc3c(C)c(O)c4c(O)c(c(/C=N/N5CCN(C)CC5)c(O)c4c3C2=O)NC(=O)/C(C)=C\C=C\[C@H](C)[C@H](O)[C@@H](C)[C@@H](O)[C@@H](C)[C@H](OC(C)=O)[C@@H]1C [RIF, Rifampicin], the “body weight of infected mice” value was “closer to placebo treated controls”.
